Values joined by “and” are separate entries in the source; they are usually repeats but may differ in a detail not shown here. Equal entries are not always repeated. The list shows a part of the results. Shown are side measurements of this screen, not its main read-out; they come without a call. Compounds called inactive in the main read-out are mostly missing here. Words in brackets tell the shape of the fitted curve; partial curves, single points and poor fits give uncertain potencies.

This experiment can be described thus: qHTS Assay for Modulators of Lamin A Splicing. The conditions noted are these: HeLa LMNA splicing GFP/RFP minigene ratio, 48 h. The method in brief:
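Read-out is the ratio of GFP to DsRed2 object intensity, acquired by 488 nm laser-scanning cytometry on HeLa lamin A-EGFP minigene reporter cells. Compound incubation 48 hrs at 37 °C in Opti-MEM with 2% FBS; DMSO 0.5% final.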

The mark [1] stands for this setting: measured here: RFP viability control channel.
Where [2] appears, read: measured here: GFP splicing reporter channel.

The AC50 is the midpoint of the concentration-response curve, whichever way the signal moves. As to `CC[N+](CC)(CC)CCOc1cccc(OCC[N+](CC)(CC)CC)c1OCC[N+](CC)(CC)CC`, under setting [1], the AC50 was 35.5 µM [falling, single point]. Take `CCCCC(=O)C1C(=O)NC(=O)NC1=O`: the AC50 under setting [1] was 0.0224 µM [rising, full curve, poor fit]. Same read-out and setting: as for `Cc1ccc(S(=O)(=O)NCC(=O)OCC(=O)N2N=C(c3ccc(Cl)cc3)CC2c2ccco2)cc1C` (stereo not drawn), the figure is 15.8 µM [rising, single point]. In the case of `O=c1c(O)c(-c2ccc(O)c(O)c2)oc2cc(O)cc(O)c12`, the AC50 is 355 nM [falling, single point] and 35.5 µM [falling, single point] and 22.4 µM [falling, partial curve] under setting [2]; 14.1 µM [falling, partial curve] under setting [1]. For the compound `CC(=O)c1ccc(Oc2ccc(C(=O)c3ccc(C)c(C)c3)cc2[N+](=O)[O-])cc1`, the concentration at half-maximal activity (AC50) is 3.98 µM [rising, full curve, poor fit] under setting [2] and 31.6 µM [rising, single point] under setting [1]. `COc1cc2c(cc1C=O)OCO2`: under setting [1], the AC50 was 0.126 µM [falling, partial curve, poor fit].

Turning to `C=Cn1ccnc1P(=S)(c1c(C)nn(-c2ccccc2)c1C)c1nccn1C=C`, the AC50 is 0.00891 µM [rising, full curve, poor fit] under setting [2] and 0.00708 µM [rising, full curve, poor fit] under setting [1]. In the case of `Cc1cc(S(=O)(=O)NC(C)C)ccc1OCC(=O)N1CCN(Cc2ccc3c(c2)OCO3)CC1`, the AC50 was 25.1 µM [rising, single point] under setting [2] and 14.1 µM [rising, partial curve] under setting [1].

With `NCC(CP(=O)(O)O)c1ccc(Cl)cc1` (stereo not drawn), the AC50 under setting [1] was 0.00224 µM [falling, full curve, poor fit].

Regarding `CCC(=O)O[C@@H]1[C@@H](OC(C)=O)[C@@]2(O)C(C[C@H](O)C2(C)C)[C@](C)(O)[C@H]2CC[C@@H]3[C@@H](O)[C@]12C[C@@]3(C)O` (stereo partly drawn), the AC50 under setting [1] was 1.58 µM [rising, partial curve, poor fit]. The same measure, in the same setting: as for `CCOP(=O)(OCC)/C(C#N)=C/c1ccc(Br)cc1`, the figure is 0.891 µM [falling, full curve, poor fit]. For `Clc1ccc(CS[C@@H](Cn2ccnc2)c2ccc(Cl)cc2Cl)cc1`, the AC50 under setting [1] is 0.000398 µM [falling, full curve, poor fit]. On to `O=C(Cn1ncc2c3ccccc3n(Cc3ccccc3F)c2c1=O)N1CCC2(CC1)OCCO2`, for which the half-maximal activity concentration (AC50) is, setting by setting: under setting [2], 11.2 µM [rising, partial curve, poor fit]; under setting [1], 22.4 µM [rising, single point]. As for `CN1C(=O)N(C)C(=O)C2(Cc3c(nc4ccccn4c3=O)N3CCc4ccccc4C32)C1=O` (stereo not drawn), the half-maximal activity concentration (AC50) under setting [1] is 2.51 µM [rising, partial curve, poor fit]. In the case of `O=C1CN=C(c2cccs2)c2c(sc3c2CCCC3)N1`, the half-maximal activity concentration (AC50) was 14.1 µM [falling, single point] under setting [2] and 22.4 µM [falling, single point] under setting [1]. Regarding `CCCCCc1nc2ccccc2c(=O)n1-c1ccccc1[N+](=O)[O-]`, the AC50 under setting [1] was 31.6 µM [rising, single point]. For `CN[C@H]1C[C@H]2O[C@@](C)([C@H]1OC)n1c3ccccc3c3c4c(c5c6ccccc6n2c5c31)C(=O)NC4`, the AC50 is 0.708 µM [falling, full curve] under setting [2] and 1 µM [falling, full curve] under setting [1].

Consider `COc1cc(C2C(C#N)=C(N)Oc3cc(O)ccc32)cc(OC)c1OC` (stereo not drawn), for which the concentration at half-maximal activity (AC50) under setting [2] is 3.16 µM [falling, full curve] and the concentration at half-maximal activity (AC50) under setting [1] was 3.98 µM [falling, full curve]. For `O=C(O)c1ccccc1Nc1cccc(C(F)(F)F)c1`, the AC50 reads like this: under setting [2], 0.00891 µM [rising, full curve, poor fit]; under setting [1], 3.16 nM [rising, full curve, poor fit] and 3.55 µM [rising, partial curve, poor fit]. For `O=C(CNC(=O)OCc1ccccc1)Nc1ccc(Br)cc1C(=O)c1ccccc1`, the AC50 is 20 µM [falling, single point] under setting [2] and 11.2 µM [falling, partial curve, poor fit] under setting [1].

For `N#Cc1nn(-c2c(Cl)cc(C(F)(F)F)cc2Cl)c(N)c1S(=O)C(F)(F)F` (stereo not drawn), the AC50 under setting [1] was 5.62 µM [rising, single point]. On the same count and under the same terms, next, `COC(=O)C1=Nc2ccccc2/C1=C\c1c(O)n(-c2ccc(Br)cc2)c(=O)[nH]c1=O`: 14.1 µM [rising, single point]; `COC(=O)N1CCN(C(=O)Cc2ccc(Cl)c(Cl)c2)C(CN2CCCC2)C1` (stereo not drawn): 5.62 µM [falling, partial curve, poor fit].

As to `NCC(O)c1ccc(O)cc1` (stereo not drawn), the AC50 runs as follows: under setting [2], 0.000891 µM [falling, full curve, poor fit]; under setting [1], 15.8 µM [rising, single point].

As for `C[N+]1(C)C2CCC1CC(OC(=O)C(CO)c1ccccc1)C2` (stereo not drawn), under setting [2], the AC50 is 0.00112 µM [rising, full curve, poor fit].

For `C[C@]12CC[C@H]3[C@@H](CCC4=CC(=O)CC[C@@]43C)[C@@H]1CC[C@@H]2O`, the concentration at half-maximal activity (AC50) under setting [2] was 2 µM [rising, full curve] and the AC50 under setting [1] was 5.62 µM [rising, partial curve]. In the case of `O=C(O)c1nn(Cc2ccc(Cl)c(Cl)c2)c2ccccc12`, the half-maximal activity concentration (AC50) under setting [2] is 6.31 µM [falling, single point]. Take `c1ccc2c(c1)Nc1ccccc1S2`: the concentration at half-maximal activity (AC50) under setting [1] is 0.000891 µM [falling, full curve, poor fit]. For `C#CC1(O)C=CC2C3CCC4=CC(=O)CCC4C3CCC21CC` (stereo not drawn), the AC50 under setting [2] was 14.1 µM [rising, single point] and the AC50 under setting [1] was 10 µM [rising, partial curve]. As to `O=c1c2ccccc2[se]n1-c1ccccc1`, the AC50 by setting is: under setting [2], 11.2 µM [falling, partial curve]; under setting [1], 0.002 µM [falling, full curve, poor fit].

Consider `COc1ccc(Cl)cc1NC(=O)c1sc2nc3c(cc2c1N)N1CCC3CC1`, for which, under setting [2], the AC50 was 1.41 µM [rising, partial curve]. For `C[C@H](CCC(=O)O)[C@H]1CC[C@H]2[C@@H]3C(=O)C[C@@H]4CC(=O)CC[C@]4(C)[C@H]3CC(=O)[C@]12C`, the AC50 is, setting by setting: under setting [2], 0.0398 µM [falling, full curve, poor fit]; under setting [1], 0.708 µM [falling, partial curve, poor fit]. As to `O=C(COc1ccc(S(=O)(=O)N2CCOCC2)cc1)N1CCN(Cc2ccc3c(c2)OCO3)CC1`, the AC50 under setting [1] is 20 µM [rising, single point]. For `CN[C@@H](C)[C@H](O)c1ccccc1`, the AC50 under setting [2] is 3.55 µM [falling, partial curve] and the AC50 under setting [1] was 15.8 µM [falling, single point].

`C=CCN1CC[C@]23CCCCC2[C@H]1Cc1ccc(O)cc13` (stereo partly drawn): the AC50 reads like this: under setting [2], 10 µM [falling, partial curve] and 7.94 µM [falling, partial curve, poor fit]; under setting [1], 14.1 µM [rising, single point]. Turning to `CCn1c(O)c(C=Nc2ccc(N3CCOCC3)c(Br)c2)c(=O)n(CC)c1=S`, the AC50 was 35.5 µM [falling, single point] under setting [2] and 35.5 µM [falling, single point] under setting [1]. Turning to `Cc1ccc(-c2nc3ccccc3c(=O)n2-c2cccc(O)c2)cc1`, under setting [1], the AC50 is 1.26 µM [falling, full curve].

As to `CC12NC(Cc3ccccc31)c1ccccc12` (stereo not drawn), the concentration at half-maximal activity (AC50) runs as follows: under setting [2], 5.62 µM [falling, partial curve, poor fit]; under setting [1], 5.62 µM [falling, single point]. Consider `CC(=O)O[C@H]1C[C@@H](O[C@@H]2[C@H](C)O[C@H](O[C@@H]3[C@H](C)O[C@H](O[C@@H]4CC[C@@]5(C)[C@@H](CC[C@]6(C)[C@]5(C)C[C@H](O)[C@]5(C)[C@@H](C7=CC(=O)OC7)CC[C@@]56O)C4)C[C@@H]3O)C[C@@H]2O)O[C@@H](C)[C@H]1O[C@H]1O[C@@H](CO)[C@@H](O)[C@@H](O)[C@@H]1O`, for which the AC50 runs as follows: under setting [2], 0.794 µM [falling, full curve]; under setting [1], 0.631 µM [falling, full curve]. For `CCS(=O)(=O)N1CCC(C(=O)N2CCC3(CC2)OCCO3)CC1`, the AC50 by setting is: under setting [2], 25.1 µM [falling, single point]; under setting [1], 35.5 µM [falling, single point]. In the case of `CCCCCCCCOC(=O)c1ccccc1C(=O)OCCCCCCCC`, the AC50 is 20 µM [falling, partial curve, poor fit] under setting [2] and 12.6 µM [falling, partial curve] under setting [1]. `CCOC(=O)CNc1ccc(C(=O)OCC)cc1[N+](=O)[O-]`: the AC50 was 0.891 µM [rising, partial curve] under setting [2] and 0.0891 µM [rising, partial curve] under setting [1]. Consider `Clc1ccc(CO[C@@H](Cn2ccnc2)c2ccc(Cl)cc2Cl)cc1`, for which the AC50 under setting [2] is 10 µM [falling, partial curve] and the AC50 under setting [1] was 7.94 µM [falling, single point]. Take `Nc1cc(Cl)c2nonc2c1[N+](=O)[O-]`: the AC50 under setting [1] was 12.6 µM [rising, partial curve]. Take `COCCCOc1ccnc(CS(=O)c2nc3ccccc3[nH]2)c1C` (stereo not drawn): the AC50 is, setting by setting: under setting [2], 0.00126 µM [falling, full curve, poor fit]; under setting [1], 0.0282 µM [falling, partial curve, poor fit]. With `CCOC(=O)C1(c2ccccc2)CCN(CC(=O)Nc2cccc3ccccc23)CC1`, the concentration at half-maximal activity (AC50) runs as follows: under setting [2], 35.5 µM [rising, single point]; under setting [1], 31.6 µM [rising, single point]. As for `C[N+]1(C)[C@@H]2CC(OC(=O)[C@H](CO)c3ccccc3)C[C@H]1[C@@H]1O[C@@H]12` (stereo partly drawn), under setting [2], the concentration at half-maximal activity (AC50) was 0.00316 µM [falling, full curve, poor fit].

The record behind these values is PubChem BioAssay AID1487 (National Center for Advancing Translational Sciences (NCATS), 2009).
